{
  "source": "patent US20040228849A1",
  "about": "(University of California, published 2004)",
  "molecules": {"B1": {"name": "IKKβ(KA) (enzyme, not shown: small tags and cut ends)", "chain": "MSWSPSLTTQTCGAWEMKERLGTGGFGNVIRWHNQETGEQIAIAQCRQELSPRNRERWCLEIQIMRRLTHPNVVAARDVPEGMQNLAPNDLPLLAMEYCQGGDLRKYLNQFENCCGLREGAILTLLSDIASALRYLHENRIIHRDLKPENIVLQQGEQRLIHKIIDLGYAKELDQGSLCTSFVGTLQYLAPELLEQQKYTVTVDYWSFGTLAFECITGFRPFLPNWQPVQWHSKVRQKSEVDIVVSEDLNGTVKFSSSLPYPNNLNSVLAERLEKWLQLMLMWHPRQRGTDPTYGPNGCFKALDDILNLKLVHILNMVTGTIHTYPVTEDESLQSLKARIQQDTGIPEEDQELLQEAGLALIPDKPATQCISDGKLNEGHTLDMDLVFLFDNSKITYETQISPRPQPESVSCILQEPKRNLAFFQLRKVWGQVWHSIQTLKEDCNRLQQGQRAAMMNLLRNNSCLSKMKNSMASMSQQLKAKLDFFKTSIQIDLEKYSEQTEFGITSDKLLLAWREMEQAVELCGRENEVKLLVERMMALQTDIVDLQRSPMGRKQGGTLDDLEEQARELYRRLREKPRDQRTEGDSQEMVRLLLQAIQSFEKKVRVIYTQLSKTVVCKQKALELLPKVEEVVSLMNEDEKTVVRLQEKRQKELWNLLKIACSKVRGPVSGSPDSMNASRLSQPGQLMSQPSTASNSLPEPAKKSEELVAEAHNLCTLLENAIQDTVREQDQSFTALDWSWLQTEEEEHSCLEQAS"}},
  "key": {"[1]": {"target": "T1, IKKα (full length human IKKα subunit) (human) (UniProt O15111)", "T1 sequence": "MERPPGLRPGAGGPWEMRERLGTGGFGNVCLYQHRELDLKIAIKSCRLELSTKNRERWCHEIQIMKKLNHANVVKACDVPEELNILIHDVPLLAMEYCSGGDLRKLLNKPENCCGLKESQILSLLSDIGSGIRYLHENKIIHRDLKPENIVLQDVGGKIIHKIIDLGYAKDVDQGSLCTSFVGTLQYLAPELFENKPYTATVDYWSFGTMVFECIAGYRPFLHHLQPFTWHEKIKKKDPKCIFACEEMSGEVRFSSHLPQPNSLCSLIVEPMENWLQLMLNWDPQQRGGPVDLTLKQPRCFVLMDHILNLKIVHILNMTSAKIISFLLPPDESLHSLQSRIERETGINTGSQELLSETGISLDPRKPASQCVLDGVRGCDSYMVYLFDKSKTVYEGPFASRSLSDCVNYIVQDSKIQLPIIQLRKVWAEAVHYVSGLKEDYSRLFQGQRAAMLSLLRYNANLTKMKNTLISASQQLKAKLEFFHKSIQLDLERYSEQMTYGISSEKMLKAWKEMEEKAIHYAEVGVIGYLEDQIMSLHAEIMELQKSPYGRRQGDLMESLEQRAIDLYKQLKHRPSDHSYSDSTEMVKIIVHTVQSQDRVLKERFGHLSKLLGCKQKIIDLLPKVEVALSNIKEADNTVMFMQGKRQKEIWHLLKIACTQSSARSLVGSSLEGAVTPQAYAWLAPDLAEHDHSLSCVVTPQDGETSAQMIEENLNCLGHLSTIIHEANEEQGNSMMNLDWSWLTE", "assay": "coimmunoprecipitation from HeLa cells transfected with 0.1 to 1.0 µg/10^6 cells of HA-IKKβ vector"}, "[2]": {"target": "T1, IKKα (full length human IKKα subunit) (human)", "assay": "coimmunoprecipitation with anti-HA from transfected 293 cells, immunoblot"}, "Flag(M2)-IKKα (human)": {"target": "T2, Flag(M2)-IKKα (human) (UniProt O15111)", "T2 sequence": "T1 sequence", "assay": "coimmunoprecipitation with anti-HA from transfected 293 cells, immunoblot"}, "[3]": {"target": "T1, IKKα (full length human IKKα subunit) (human)", "assay": "coimmunoprecipitation from transfected cells (summing up of the results before it)"}, "[4]": {"target": "GST-(8X-AA) [GST: P08515]", "assay": "affinity chromatography of HeLa IKK material on GST-(8X-AA) resin, silver stained SDS-PAGE"}, "[5]": {"target": "T1, IKKα (full length human IKKα subunit) (human)", "assay": "immunoprecipitation experiments, transfected mammalian cells"}},
  "note": "Results are given in words; binding and its absence hold for the method and conditions named. For part of these data: In cells and extracts the contact can be indirect. Some entries that bind do so weakly or less than the wild type. For part of these data: Where a sequence is shown, tags or fusion partners need not be part of it.",
  "data": [
    {"molecule": "HA-IKKβ (from UniProt O14920 1-756) (enzyme)", "values": [
      {"measurement": "binding", "setting": "[1]", "value": "binds"},
      {"measurement": "binding", "setting": "[2]", "value": "binds"},
      {"measurement": "binding", "setting": "Flag(M2)-IKKα (human)", "value": "binds"},
      {"measurement": "binding", "setting": "[3]", "value": "binds"}
    ]},
    {"molecule": "IKKβ (full length human IKKβ subunit) (from UniProt O14920 1-756) (enzyme)", "values": [
      {"measurement": "binding", "setting": "[4]", "value": "binds"}
    ]},
    {"molecule": "B1", "values": [
      {"measurement": "binding", "setting": "[5]", "value": "binds"}
    ]}
  ]
}
